pIC50: −log10 of the molar value. Part of at least one peptide drawing is inferred or uncertain, most often the ends. Some results were stated once for a whole list of compounds, not compound by compound. Where no end group is shown, it is not given here.
Legend:
[1] = test system: syndecan-1 association with the αvβ3 and αvβ5 integrins; test: Co-immunoprecipitation of β3/β5 integrin with syndecan-1 from HMEC-1 cells; format: binding, human; conditions: HMEC-1, 30 μM GST-mS1ED or 1 μM SSTN
Description: (§1) FIGS. 8A-8D—SSTN disrupts association of syndecan-1 with the αvβ3 and αvβ5 integrins. (FIG. 8A) Diagram of mouse syndecan-4 (mS4), human syndecan-1 (hS1) and mouse syndecan-1 (mS1) and mS1 deletion mutants showing which proteoglycans are able to activate the αvβ3 and αvβ5 integrins. (FIG. 8B) Flow cytometry of human aortic endothelial cells (HAEC), human dermal microvascular endothelial cells (HMEC-1) or mouse aortic endothelial cells (MAEC) using human or mouse-specific antibodies for syndecan-1, αvβ3, and αvβ5. The β5 subunit is detected by Western blot in mouse cells and is compared to B82L fibroblasts known to express this integrin; (FIG. 8C) Human syndecan-1 is immunoprecipitated from HMEC-1 cells in the presence or absence of 30 μM GST, 30 μM GST-mS1ED (mouse syndecan-1 ectodomain), or 1 μM SSTN and detected on blots along with co-precipitating β3 or β5 integrin. (FIG. 8D) Human syndecan-1 is immunoprecipitated from MDA-MB-231 human mammary carcinoma cells expressing full-length mouse syndecan-1 (F1-mS1), a mouse mutant bearing deletion of amino acids 67-121 (mS1^Δ67-121), or vector alone (NEO) and blotted for the co-precipitation of the αvβ3 integrin by detection of the β3 subunit. […]

By UniProt entry, the sequences of proteins in these tests, tags left out. Residues count along the entry.
UniProt P05106, 27-788: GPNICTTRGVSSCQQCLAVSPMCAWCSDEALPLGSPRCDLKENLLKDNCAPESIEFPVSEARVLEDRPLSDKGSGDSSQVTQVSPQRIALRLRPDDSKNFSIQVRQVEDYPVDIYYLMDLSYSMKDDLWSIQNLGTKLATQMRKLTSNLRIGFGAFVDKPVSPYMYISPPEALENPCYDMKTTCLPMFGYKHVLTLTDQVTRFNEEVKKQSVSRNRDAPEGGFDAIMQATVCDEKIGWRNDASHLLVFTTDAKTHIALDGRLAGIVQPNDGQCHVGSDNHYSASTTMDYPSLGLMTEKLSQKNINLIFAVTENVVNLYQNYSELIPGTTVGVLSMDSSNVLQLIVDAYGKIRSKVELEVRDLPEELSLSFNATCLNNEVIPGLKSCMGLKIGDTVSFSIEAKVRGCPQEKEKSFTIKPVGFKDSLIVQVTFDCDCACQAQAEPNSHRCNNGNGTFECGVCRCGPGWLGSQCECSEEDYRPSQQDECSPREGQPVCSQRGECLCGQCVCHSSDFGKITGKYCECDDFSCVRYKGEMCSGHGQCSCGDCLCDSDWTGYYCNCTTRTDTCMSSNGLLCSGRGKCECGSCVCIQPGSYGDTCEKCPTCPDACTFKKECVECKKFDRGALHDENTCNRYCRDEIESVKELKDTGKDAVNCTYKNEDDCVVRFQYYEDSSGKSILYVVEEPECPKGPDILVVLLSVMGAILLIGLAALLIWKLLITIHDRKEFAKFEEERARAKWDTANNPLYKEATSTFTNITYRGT
UniProt P06756, 891-1048 limits assumed: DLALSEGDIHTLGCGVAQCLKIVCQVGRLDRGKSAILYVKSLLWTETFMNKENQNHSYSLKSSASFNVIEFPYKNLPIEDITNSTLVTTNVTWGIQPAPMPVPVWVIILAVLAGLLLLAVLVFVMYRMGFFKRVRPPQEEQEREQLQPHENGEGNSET
UniProt P06756, 31-889 limits assumed: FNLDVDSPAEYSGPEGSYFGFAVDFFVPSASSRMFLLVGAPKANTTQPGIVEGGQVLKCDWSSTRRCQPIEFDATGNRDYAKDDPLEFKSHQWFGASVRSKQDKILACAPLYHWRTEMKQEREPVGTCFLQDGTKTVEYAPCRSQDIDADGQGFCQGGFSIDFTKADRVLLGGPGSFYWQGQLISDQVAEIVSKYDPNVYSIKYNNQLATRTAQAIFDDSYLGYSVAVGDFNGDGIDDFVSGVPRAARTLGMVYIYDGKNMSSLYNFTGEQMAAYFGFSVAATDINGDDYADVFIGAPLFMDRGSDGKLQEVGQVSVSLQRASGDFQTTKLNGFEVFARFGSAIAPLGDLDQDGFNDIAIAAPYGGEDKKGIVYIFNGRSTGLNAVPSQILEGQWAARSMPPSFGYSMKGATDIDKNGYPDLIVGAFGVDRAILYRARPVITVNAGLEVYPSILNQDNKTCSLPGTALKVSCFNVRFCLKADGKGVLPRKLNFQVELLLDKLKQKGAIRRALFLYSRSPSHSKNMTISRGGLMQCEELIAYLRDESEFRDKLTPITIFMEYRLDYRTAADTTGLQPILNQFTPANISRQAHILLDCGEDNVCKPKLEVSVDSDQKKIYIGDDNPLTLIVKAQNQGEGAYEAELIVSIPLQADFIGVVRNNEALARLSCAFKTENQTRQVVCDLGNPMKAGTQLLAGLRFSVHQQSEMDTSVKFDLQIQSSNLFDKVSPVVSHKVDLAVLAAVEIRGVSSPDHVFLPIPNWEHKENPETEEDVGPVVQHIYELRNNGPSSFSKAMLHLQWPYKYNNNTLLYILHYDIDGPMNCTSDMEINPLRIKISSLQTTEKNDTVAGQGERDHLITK

[2] = test system: MDA-MB-231 human mammary carcinoma cells; format: cell-based
Experimental: FIGS. 5A-5F—Inhibition of MDA-MB-231 human mammary carcinoma cell attachment and spreading on VN by synstatin82-130. MDA-MB-231 human mammary carcinoma cells, which rely on the αvβ3 integrin for attachment and spreading on VN, were plated on 10 μg/ml VN for 2 hr in the absence of peptide (FIG. 5A) or in the presence of 0.1 (FIG. 5B), 0.3 (FIG. 5C) or 1 μM (FIG. 5D) synstatin82-130. The cells were fixed and stained as in FIG. 2.
FIG. 17—Human SSTN peptides inhibit αvβ3-mediated cell attachment and spreading on vitronectin. MDA-MB-231 human mammary carcinoma cells were allowed to attach and spread on either vitronectin (VN) or fibronectin (FN) during a 2 hr assay in the presence of 0, 0.1, 0.3, 0.5, 1.0 or 30 μM SSTN peptide. […] The two peptides tested are derived either from amino acids 88-121 (hSSTN 88-121) or 89-120 (hSSTN 89-120) of the human Sdc1 sequence. Adhesion to VN, but not FN, is mediated by the αvβ3 integrin on these cells and is disrupted by the human SSTN peptides.
Cell adhesion and spreading assays were performed with modification to the previous procedures (Lebakken and Rapraeger, 1996. Briefly, human plasma vitronectin or fibronectin at 10-30 μg/ml were applied to nitrocellulose-coated ten well slides (Erie Scientific) and incubated for 1-2 h at 37° C. Slides were blocked with 1.0% heat-denatured bovine serum albumin for a minimum of 30 min at 37° C. Cells were detached from the substratum using 5 mM EDTA in Tris-buffered saline and resuspended in HEPES-buffered culture medium containing 0.1% heat-denatured BSA. Cells were plated at a density of 15,000 cells per well and allowed to attach and spread for 2 h prior to fixation in 4% paraformaldehyde in CMF-PBS. For fluorescence microscopy, fixed cells were permeabilized in 0.2% Triton X-100, labeled with rhodamine-conjugated phalloidin and analyzed using fluorescence microscopy. For testing inhibition by recombinant mScd-1ED and synstatin82-130, cells were pre-incubated 10 min before plating in the presence of the inhibitor. […] LM609 was used as a specific block to αvβ3 and P1F6 was used as a specific blocker of αvβ5.
The inventors have tested the adhesion and spreading of MDA-MB-231 mammary carcinoma cells on VN in the presence or absence of synstatin82-130. These cells rely specifically on the active αvβ3 integrin for this adhesion (Beauvais et al., 2004). Recombinant Sdc1 ectodomain (SLED) has been shown by the inventors previously to block spreading of these cells with an IC50 of about 3-10 μM (Beauvais et al., 2004). […] Thus, synstatin82-130 is a specific and effective inhibitor of αvβ3 integrin activation.

[3] = molecular target: T1, syndecan-1 association with the αvβ3 integrin (Homo sapiens, UniProt P05106+P06756); test: Co-immunoprecipitation of αvβ3 integrin with syndecan-1 from MDA-MB-231 cells; format: binding
T1 construct: endogenous in cells; host or cells: MDA-MB-231 human mammary carcinoma cells (some also transfected with mouse syndecan-1 constructs)
Description: as §1

αvβ3 integrin = molecular target: T2, αvβ3 integrin (Homo sapiens, UniProt P05106+P06756); test: HMEC spreading and αvβ3 activation (WOW-1 staining) on Sdc1 antibody B-B4; format: cell-based
T2 construct: endogenous in cells; host or cells: HMEC-1 (human dermal microvascular endothelial cells)

## SNTETAFTSVLPAGEKPEEGEPVLHVEAEPGFTARDKEKEVTTRPRETV [synstatin82-130]
[1]
  co-precipitation of β3 and β5 integrin with human syndecan-1: displace the integrins
[2]; 1 μM
  cell attachment on VN: completely blocks cell attachment
[2]; MDA-MB-231, 2 hr assay, FIG. 17, read-out: IC50, attachment and spreading on vitronectin
  pIC50: 6.52 to 7.00
[2]; from IC50s, MDA-MB-231 on VN
  times more effective than recombinant S1ED: 30-100 ×
[3]
  co-immunoprecipitation of αvβ3 integrin with human or mouse syndecan-1: competed
αvβ3 integrin; HMECs on B-B4, 0.5 μM
  recognition by WOW-1 (activated αvβ3 integrin): prevents
αvβ3 integrin; HMECs, 0.5 μM
  cell spreading on B-B4 substratum: prevents

Reference: patent US10864251B2, “Peptides of syndecan-1 for inhibiting angiogenesis” (Wisconsin Alumni Research Foundation, priority 2006, dated 2020)
